Source: article PMC3105124 (Brain research, 2011)

Experiments:
[1] = tested on: L5/L6 spinal nerve ligated male Sprague Dawley rats; test: Mechanical hypersensitivity; format: in vivo, rat; conditions: 10 μg/5μL intrathecal (morphine 10 μg); vehicle AUC=22.07 ± 3.02
[2] = tested on: L5/L6 spinal nerve ligated male Sprague Dawley rats; test: Thermal hypersensitivity; format: in vivo, rat; set-up: unit not given beside the values; conditions: morphine (10 mg) intrathecal; vehicle AUC=55.52 ± 2.74

CN1CC[C@]23c4c5ccc(O)c4O[C@H]2[C@@H](O)C=C[C@H]3[C@H]1C5 [morphine, reference compound]
AUC, paw withdrawal threshold (mechanical) [1]: 34.96 ± 7.99 | AUC, paw withdrawal latency (thermal) [2]: 77.33 ± 6.71
